These are yes or no findings as the source states them, for the method shown. Binding seen in cells or lysates may run through a third protein. For some assays here: Binding can be weak; no strength is given.
Experiments:
[1] = target: early endosome autoantigen 1 (EEA1) (human (endogenous in THP-1)) (UniProt Q15075); experiment: co-IP; as a1, but the THP-1 cells were stimulated with a caspase-1 inhibitor present
[2] = target: early endosome autoantigen 1 (EEA1) (human (endogenous in THP-1)) (UniProt Q15075); experiment: co-IP; anti-EEA1 (1.5 µg, 1 h, 4 °C), then protein-G-agarose beads, from cell supernatants of LPS-primed THP-1 macrophages after NLRP3 stimulation with hypotonicity; normal mouse IgG1 as control; blot for caspase-1 p10

Sequences of proteins named here, by UniProt entry; tags and fusion partners are left off. A change or cut given only in a name is not applied to a line headed by its entry.
UniProt Q15075: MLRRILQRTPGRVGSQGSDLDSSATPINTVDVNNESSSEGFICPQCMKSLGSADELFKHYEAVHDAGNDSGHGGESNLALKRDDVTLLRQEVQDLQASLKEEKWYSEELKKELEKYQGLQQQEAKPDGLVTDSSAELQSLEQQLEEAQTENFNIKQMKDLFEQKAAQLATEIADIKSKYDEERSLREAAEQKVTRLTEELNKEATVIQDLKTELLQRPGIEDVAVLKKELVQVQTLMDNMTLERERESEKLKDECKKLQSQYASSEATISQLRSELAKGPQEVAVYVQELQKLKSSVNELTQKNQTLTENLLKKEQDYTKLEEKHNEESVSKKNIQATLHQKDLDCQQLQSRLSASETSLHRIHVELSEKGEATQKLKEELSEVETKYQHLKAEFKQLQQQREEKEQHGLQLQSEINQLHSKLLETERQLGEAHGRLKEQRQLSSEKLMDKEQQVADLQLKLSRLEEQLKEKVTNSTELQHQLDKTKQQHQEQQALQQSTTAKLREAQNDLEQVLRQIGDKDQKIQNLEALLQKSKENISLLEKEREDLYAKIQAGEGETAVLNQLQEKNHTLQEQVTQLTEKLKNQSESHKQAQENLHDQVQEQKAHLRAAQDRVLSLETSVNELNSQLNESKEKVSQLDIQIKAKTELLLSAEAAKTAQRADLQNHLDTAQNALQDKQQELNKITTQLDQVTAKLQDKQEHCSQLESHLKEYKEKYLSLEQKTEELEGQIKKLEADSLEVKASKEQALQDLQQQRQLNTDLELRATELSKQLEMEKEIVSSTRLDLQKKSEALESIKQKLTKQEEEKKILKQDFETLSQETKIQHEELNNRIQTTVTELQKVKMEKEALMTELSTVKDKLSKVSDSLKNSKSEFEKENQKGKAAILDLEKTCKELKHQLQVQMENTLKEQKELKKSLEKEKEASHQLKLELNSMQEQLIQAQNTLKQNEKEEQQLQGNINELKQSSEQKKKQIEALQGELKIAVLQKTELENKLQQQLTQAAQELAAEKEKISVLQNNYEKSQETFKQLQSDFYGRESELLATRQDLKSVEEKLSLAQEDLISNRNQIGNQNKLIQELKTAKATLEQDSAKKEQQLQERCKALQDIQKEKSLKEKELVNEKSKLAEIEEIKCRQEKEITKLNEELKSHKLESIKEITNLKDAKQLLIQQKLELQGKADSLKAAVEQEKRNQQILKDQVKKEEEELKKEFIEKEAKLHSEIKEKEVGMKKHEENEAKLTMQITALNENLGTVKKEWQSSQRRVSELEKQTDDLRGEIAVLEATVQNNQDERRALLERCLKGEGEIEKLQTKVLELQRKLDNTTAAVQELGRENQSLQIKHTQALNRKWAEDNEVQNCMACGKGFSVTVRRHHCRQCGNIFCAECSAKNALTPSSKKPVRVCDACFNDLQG
UniProt P29466: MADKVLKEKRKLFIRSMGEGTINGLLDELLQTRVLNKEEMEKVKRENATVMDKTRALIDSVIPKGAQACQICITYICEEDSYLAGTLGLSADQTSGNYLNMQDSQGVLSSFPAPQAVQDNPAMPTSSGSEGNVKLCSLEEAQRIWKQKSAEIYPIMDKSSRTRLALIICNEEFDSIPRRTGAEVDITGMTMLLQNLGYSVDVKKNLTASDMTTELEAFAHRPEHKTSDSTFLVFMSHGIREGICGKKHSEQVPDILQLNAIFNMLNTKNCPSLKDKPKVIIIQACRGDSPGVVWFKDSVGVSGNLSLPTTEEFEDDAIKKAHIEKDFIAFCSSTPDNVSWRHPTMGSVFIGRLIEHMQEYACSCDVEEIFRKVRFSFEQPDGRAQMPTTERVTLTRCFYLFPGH

binding [2]: binds
Substance: p10 subunit of active caspase-1 (from UniProt P29466) (enzyme)
binding [1]: no binding (only with a caspase-1 inhibitor)

Reference: article PMC6453936
